# Experimental data from US20240401063, “Aptamer for DKK1 and Use Thereof” (APTACURE THERAPEUTICS LIMITED, published 2024).
# Key:
# [1] = biological target: T1, DKK1 (Dickkopf-1), full-length (Homo sapiens) (UniProt O94907); assay: ELONA; conditions: 1 uM; especially lower absorbance; purified recombinant protein; protein details: His6; label: biotin; single-stranded DNA; variant of Apt5-1-38 (Aptdkk5s)
# T1 sequence (limits assumed): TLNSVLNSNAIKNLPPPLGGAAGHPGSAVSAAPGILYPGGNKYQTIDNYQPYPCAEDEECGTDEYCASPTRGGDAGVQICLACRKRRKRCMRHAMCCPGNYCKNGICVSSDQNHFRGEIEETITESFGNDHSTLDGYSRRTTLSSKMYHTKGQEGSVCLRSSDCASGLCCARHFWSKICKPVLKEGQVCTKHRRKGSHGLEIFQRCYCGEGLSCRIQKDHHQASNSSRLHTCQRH
# [2] = biological target: DKK1 expressed in Wnt reporter cells (UniProt O94907); assay: activity in cells; conditions: relieves DKK1 inhibition of Wnt at 1 uM; IC50 fit failed, weaker; protein in cells; protein details: DKK1 construct co-transfected in HEK293T; single-stranded DNA
# [3] = biological target: T2, DKK1-deltaL2&C (pCS2-DKK1-deltaL2&C-His-flag, S2) (Homo sapiens) (UniProt O94907); assay: pull-down; conditions: almost no binding; C domain (178-266) implicated; protein in a lysate after overexpression; label: FAM; single-stranded DNA; variant of Aptdkk-5
# T2 sequence: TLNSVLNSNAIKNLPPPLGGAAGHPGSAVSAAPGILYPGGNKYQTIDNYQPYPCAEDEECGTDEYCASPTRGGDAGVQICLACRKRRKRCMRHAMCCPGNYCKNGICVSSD
# [4] = biological target: DKK1 full-length (pCS2-DKK1-His-flag, S4) (Homo sapiens) (UniProt O94907); assay: pull-down; conditions: 250 nM FAM-aptamer on DKK1-NTA beads, fluorescence microscopy, room temperature; protein in a lysate after overexpression; label: FAM; single-stranded DNA; variant of Aptdkk-5
# [5] = biological target: T3, DKK1-deltaC (pCS2-DKK1-deltaC-His-flag, S3) (Homo sapiens) (UniProt O94907); assay: pull-down; conditions: almost no binding; C domain (178-266) implicated; protein in a lysate after overexpression; label: FAM; single-stranded DNA; variant of Aptdkk-5
# T3 sequence: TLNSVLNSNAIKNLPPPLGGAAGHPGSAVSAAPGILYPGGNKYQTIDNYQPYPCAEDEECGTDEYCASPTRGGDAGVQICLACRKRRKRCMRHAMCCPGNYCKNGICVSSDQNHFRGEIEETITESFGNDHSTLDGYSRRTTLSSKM
sequence,measurement,setting,value
CGTACGAAAGACGCTAGCTGGTGGTTGGGGTGGGTGGT [Aptdkk5s-3],binding result,[1],binds more weakly
CGTACGGTCGACGCTAGCATAGGTTGGGTAGGTTGGTTGCTTTTTTTGTCGCGGGATCCGAGCTCCACGTG [Aptdkk-19],functional effect of the aptamer,[2],active
CGTACGGTCGACGCTAGCTGGTGGAAAGGGTGGGTGGT [Aptdkk5s-9],binding result,[1],binds more weakly
CGTACGGTCGACGCTAGCTGGTGGTTGGGGAAAGTGGT [Aptdkk5s-11],binding result,[1],binds more weakly
CGTACGGTCGACGCTAGCTGGTGGTTGGGGTGGGTGGT [FAM-aptdkk5s],binding result,[3],no binding
same,binding result,[4],binds
same,binding result,[5],no binding

# For some of these results: The comparison behind a weaker result is the experiment's own reference, which may not be listed here. For some of these results: Protein sequences can lack the tags named with them. For some of these results: At least one result comes from cells or an extract, where the contact may be indirect. For some of these results: Negatives hold for the conditions tested.
